These are yes or no findings as the source states them, for the method shown. In cells and extracts the contact can be indirect. Some binding calls cover weakened binding; strength is not graded here.
How the values were obtained:
[1] = target: T1, USP33 in HEK293T cell lysate (Figure 1D, Figure 1F) (human) (UniProt Q8TEY7); assay: co-IP
T1 sequence: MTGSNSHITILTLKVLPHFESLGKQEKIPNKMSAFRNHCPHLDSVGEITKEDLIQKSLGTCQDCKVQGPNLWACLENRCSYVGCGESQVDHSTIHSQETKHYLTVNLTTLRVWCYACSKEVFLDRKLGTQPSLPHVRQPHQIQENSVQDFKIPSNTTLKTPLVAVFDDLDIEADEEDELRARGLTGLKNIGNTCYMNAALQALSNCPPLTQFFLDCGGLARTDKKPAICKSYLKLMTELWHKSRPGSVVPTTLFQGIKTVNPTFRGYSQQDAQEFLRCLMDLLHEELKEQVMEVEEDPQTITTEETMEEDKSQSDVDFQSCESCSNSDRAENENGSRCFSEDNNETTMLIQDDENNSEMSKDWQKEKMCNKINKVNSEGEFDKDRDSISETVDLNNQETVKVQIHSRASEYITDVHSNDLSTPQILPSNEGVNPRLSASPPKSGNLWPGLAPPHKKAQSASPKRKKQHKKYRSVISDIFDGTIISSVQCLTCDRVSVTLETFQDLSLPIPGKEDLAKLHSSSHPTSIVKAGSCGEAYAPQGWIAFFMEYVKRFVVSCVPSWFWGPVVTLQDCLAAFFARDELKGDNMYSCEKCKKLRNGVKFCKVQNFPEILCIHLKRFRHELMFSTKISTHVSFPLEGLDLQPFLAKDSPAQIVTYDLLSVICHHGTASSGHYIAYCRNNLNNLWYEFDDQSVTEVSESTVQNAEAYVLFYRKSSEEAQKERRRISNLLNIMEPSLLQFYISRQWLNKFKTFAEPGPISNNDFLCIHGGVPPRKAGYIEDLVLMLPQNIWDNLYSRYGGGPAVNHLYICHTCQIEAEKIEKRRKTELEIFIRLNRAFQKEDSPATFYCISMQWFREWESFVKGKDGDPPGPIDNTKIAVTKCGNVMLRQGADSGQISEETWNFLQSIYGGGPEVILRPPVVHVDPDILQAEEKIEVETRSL

Chains of the proteins cited; added tags and fusions are not shown.
UniProt P0DTC4: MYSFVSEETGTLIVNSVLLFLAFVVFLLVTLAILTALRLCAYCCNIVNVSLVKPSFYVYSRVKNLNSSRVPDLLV
UniProt P0DTD8: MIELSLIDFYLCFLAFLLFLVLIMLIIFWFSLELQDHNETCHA

[2] = target: T2, USP33, endogenous in HeLa-ACE2 cells (human (endogenous in HeLa-ACE2)) (UniProt Q8TEY7); assay: co-IP
T2 sequence: T1 sequence

In the case of “SARS-CoV-2 membrane (M) protein (from UniProt P0DTC5 1-222)”, the binding [1] was “binds”.

For “SARS-CoV-2 E protein made in infected cells (from UniProt P0DTC4 1-75)”, the binding [2] was “binds”.

For “SARS-CoV-2 ORF7b (from UniProt P0DTD8 1-43)”, the binding [1] was “binds”.

Reference: paper PMC11558077
